Experimental data reported in patent publication US20240108001A1, “Antibacterial Composition” (LG Chem, Ltd., priority 2021, published 2024).
Some results were stated once for a whole list of compounds, not compound by compound. At least one structure is not confirmed: it was looked up by name or label, or the drawing left a doubt.

Test system: 3T3
Assay: Acute oral toxicity dose LD50 by 3T3 Neutral Red Uptake (NRU) assay (OECD Guidance Document No 129)
Assay type: cell-based
Settings: LD50 calculated from 3T3 NRU assay (OECD GD 129)
Description: The acute oral toxicity dose LD50 was measured by 3T3 Neutral Red Uptake (NRU) assay (OECD Guidance Document No 129). Specifically, LD50 may be calculated by the following method.

Row | Structure (SMILES) | Acute oral toxicity dose (mg/Kg) LD50
1 | C=CC(=O)OCC[N+](CCCC)(CCCC)CCCCCCCC [Monomer 1] | ≥ 1,000 mg/Kg
2 | C=CC(=O)OCC[N+](CCCC)(CCCC)CCCCCCCCCC [Monomer 2] | ≥ 1,000 mg/Kg
3 | C=CC(=O)OCC[N+](CCCCCCCC)(CCCCCCCC)CCCCCCCC [Monomer 4] | ≥ 1,000 mg/Kg
4 | C=C(C)C(=O)OCC[N+](CCCC)(CCCCCC)CCCCCCCCCC (centres unmarked) [Monomer 6] | ≥ 1,000 mg/Kg
5 | C=CC(=O)OCCCC[N+](CCCC)(CCCC)CCCCCCCC [Monomer 9] | ≥ 1,000 mg/Kg
